Literature values in US10172825B2, “Pharmacological treatment of cognitive impairment” (priority 2006, dated 2019).
Some results were stated once for a whole list of compounds, not compound by compound.

Conditions: humans, oral ginkgo biloba leaf extract; cited from earlier work

SMILES: CC(C)(C)[C@]1(O)C[C@@H]2OC(=O)C[C@@]23C(=O)O[C@@H]2OC(=O)[C@H](O)[C@]213 [bilobalide, Bilobalide]
- Excreted unchanged in the urine: 30-50%
